Test results: USRE33897E, “Synthetic polypeptides and antibodies related to Epstein-Barr virus nuclear antigen” (Scripps Clinic and Research Foundation, priority 1989, dated 1992)
Not every detail of the peptide structures is certain; ends, links or a residue may be inferred. Some entries repeat one wording, which the source may state once for all of them. Residues, ends and D or L forms follow the SMILES beside them.

Columns and labels:
[1] = tested on: human anti-EBNA antibodies; assay: Competition ELISA: competing polypeptide in solution inhibits serum antibody binding to solid phase P62; conditions: sera of Table 4
anti-EBNA antibodies = assay: ELISA with polypeptide as solid phase antigen, detecting anti-polypeptide antibodies in sera; type: binding, human; conditions: all antisera tested
Protocol: A solution containing a substrate for the enzyme label such as hydrogen peroxide for peroxidase and a color-forming dye precursor such as o-phenylenediamine, or p-nitrophenyl phosphate for alkaline phosphatase is thereafter admixed with the solid phase.
Anti-peptide antibody binding and inhibition studies were carried out by an enzyme-linked immunosorbent assay (ELISA) as described below.
Briefly, microtiter wells (Costar, #3590, Cambridge, Mass.) were coated with individual polypeptides as antigens by adding 100 microliters (ul) of BBS [10 millimoler (mM) sodium borate (pH 8.3), 150 mM NaCl] containing polypeptide at a concentration of 10 micrograms per milliliter (ug/ml). Contact between the wells and antigen-containing solution was maintained for a predetermined time, typically 15 minutes, and at 20 degrees C., to form an antigen-coated solid phase. The solid and liquid phases were separated and the wells were washed three times with BBS.
Non-specific binding sites were blocked by admixing 200 microliters of 1% bovine serum albumin (BSA) in each well to form another solid-liquid phase admixture, and maintaining that solid-liquid phase admixture for 30 minutes, at 20 degrees C. The phases were separated and excess, unbound BSA was removed by washinq three times with BBS.
[…] Contact between the diluted sera and the antigen-coated solid phase was maintained for a predetermined time such as 1 hour, and at 20 degrees C., for an immunoreactant to form. The solid and liquid phases were separated, and the solid phase; i.e., antigen-coated, immunoreactant-containing wells, was then washed three times with BBS.
The antibodies in human sera that immunoreacted with an adsored polypeptide were detected using an indicating means comprising alkaline phosphatase-conjugated goat anti-human Ig antibody (Tago, Burlington, CA). The antibodies in rabbit sera that immunoreacted with an adsorbed polypeptide were detected using an indicating means comprising alkaline phosphatase-conjugated goat anti-rabbit Ig antibody (Kirkegard & Perry Laboratories, Inc., Gaithersburg, Md.). In either instance, 100 microliters of the indicating antibody diluted 1:300 in BBS were added per well to form a further solid-liquid phase composition. This solidliquid phase composition was maintained for a predetermined time, one hour, for the formation of a reaction product between the human antibodies bound to the solid phase and the indicating means, and at 20 degrees C.

Structure (SMILES)	Sera whose binding to solid phase P62 was inhibited by the competing A series polypeptide [1]	Immunoreaction of antisera with A series polypeptide bound to microtiter plates (anti-EBNA antibodies)	Concentration needed for equivalent inhibition relative to P62 or D1 [1]
C[C@H](NC(=O)CNC(=O)CNC(=O)CN)C(=O)NCC(=O)O [Polypeptide A5, GGGAG] (H-GGGAG-OH)	None were inhibited	No antiserum tested immunoreacted	
C[C@H](NC(=O)CN)C(=O)NCC(=O)N[C@@H](C)C(=O)NCC(=O)NCC(=O)NCC(=O)N[C@@H](C)C(=O)NCC(=O)O [Polypeptide A9] (H-GAGAGGGAG-OH)	Almost all sera tested were inhibited	No antiserum tested immunoreacted	more than 100 fold
C[C@H](N)C(=O)NCC(=O)N[C@@H](C)C(=O)NCC(=O)NCC(=O)NCC(=O)N[C@@H](C)C(=O)NCC(=O)O [Polypeptide A8] (H-AGAGGGAG-OH)	three sera immunoreacted with and were inhibited	No antiserum tested immunoreacted	
C[C@H](NC(=O)CN)C(=O)NCC(=O)NCC(=O)NCC(=O)N[C@@H](C)C(=O)NCC(=O)O [Polypeptide A7, GAGGGAG] (H-GAGGGAG-OH)	one	No antiserum tested immunoreacted	
C[C@H](N)C(=O)NCC(=O)NCC(=O)NCC(=O)N[C@@H](C)C(=O)NCC(=O)O [Polypeptide A6, AGGGAG]	None were inhibited	No antiserum tested immunoreacted	
